Results on two sequences are retold here after publication PMC7210767.

The test system of data set [1] is GAME9-135A (high-SGA allele). The experiment in a line: EMSA. The following applies: poly(dI-dC), 2.5% glycerol, 50 ng/ul poly(dI-dC)), room temperature, 30 min, 6% native PAGE, pH not stated, recombinant protein, protein details: MBP. A general note: In EMSA bound probe runs differently from free probe, usually more slowly.
Data set [2] relates to GAME9-135V (low-SGA allele) (Solanum lycopersicum (AC)). The data set can be described thus: EMSA. The following applies: poly(dI-dC), text says not able to bind, also summarised as weak binding; 2.5% glycerol, 50 ng/ul poly(dI-dC)), room temperature, 30 min; 6% native PAGE; pH not stated; recombinant protein; protein details: MBP; label: 5'-FAM on sense strand.

For at least one entry, the source does not settle the construct or the ends of the probe. Negatives hold for the conditions tested.

In the case of “CACTCAACACATCCATTCAAAAAACACACCCCACTCCCAGCA (double strand) [GAME17 promoter mutant probe (mProbe)]”, the binding result in data set [1] is “no binding”.

As for “CACTCAACACATCCATTCGCCCCCCACACCCCACTCCCAGCA (double strand) [GAME17 promoter GC-rich probe (WT)]”, the binding result in data set [1] (label: 5'-FAM on sense strand) is on record as “binds”; in data set [2], “no binding”.
